Assay results published in PMC5739638.
These are yes or no findings as the source states them, for the method shown. In cells and extracts the contact can be indirect. Some binding calls cover weakened binding; strength is not graded here.

The chains behind the UniProt entries cited, without tags or fusion partners. Residues count along the entry.
UniProt Q04206: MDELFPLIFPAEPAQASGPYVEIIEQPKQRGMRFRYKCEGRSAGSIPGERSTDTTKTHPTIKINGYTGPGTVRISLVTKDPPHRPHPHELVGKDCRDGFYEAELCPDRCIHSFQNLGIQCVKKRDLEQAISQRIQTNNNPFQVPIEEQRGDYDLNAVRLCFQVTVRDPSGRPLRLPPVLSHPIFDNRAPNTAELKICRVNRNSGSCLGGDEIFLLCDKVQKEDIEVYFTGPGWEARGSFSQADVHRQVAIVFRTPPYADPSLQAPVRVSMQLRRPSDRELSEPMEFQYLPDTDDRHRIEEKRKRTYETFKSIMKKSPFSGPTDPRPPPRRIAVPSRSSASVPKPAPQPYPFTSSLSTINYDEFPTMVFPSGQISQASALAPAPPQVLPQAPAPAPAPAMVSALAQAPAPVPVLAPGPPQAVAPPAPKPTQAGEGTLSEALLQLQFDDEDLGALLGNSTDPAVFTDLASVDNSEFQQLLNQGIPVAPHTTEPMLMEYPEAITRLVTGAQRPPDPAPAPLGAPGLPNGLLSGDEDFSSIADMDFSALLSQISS
UniProt P15941, residues 24-1255: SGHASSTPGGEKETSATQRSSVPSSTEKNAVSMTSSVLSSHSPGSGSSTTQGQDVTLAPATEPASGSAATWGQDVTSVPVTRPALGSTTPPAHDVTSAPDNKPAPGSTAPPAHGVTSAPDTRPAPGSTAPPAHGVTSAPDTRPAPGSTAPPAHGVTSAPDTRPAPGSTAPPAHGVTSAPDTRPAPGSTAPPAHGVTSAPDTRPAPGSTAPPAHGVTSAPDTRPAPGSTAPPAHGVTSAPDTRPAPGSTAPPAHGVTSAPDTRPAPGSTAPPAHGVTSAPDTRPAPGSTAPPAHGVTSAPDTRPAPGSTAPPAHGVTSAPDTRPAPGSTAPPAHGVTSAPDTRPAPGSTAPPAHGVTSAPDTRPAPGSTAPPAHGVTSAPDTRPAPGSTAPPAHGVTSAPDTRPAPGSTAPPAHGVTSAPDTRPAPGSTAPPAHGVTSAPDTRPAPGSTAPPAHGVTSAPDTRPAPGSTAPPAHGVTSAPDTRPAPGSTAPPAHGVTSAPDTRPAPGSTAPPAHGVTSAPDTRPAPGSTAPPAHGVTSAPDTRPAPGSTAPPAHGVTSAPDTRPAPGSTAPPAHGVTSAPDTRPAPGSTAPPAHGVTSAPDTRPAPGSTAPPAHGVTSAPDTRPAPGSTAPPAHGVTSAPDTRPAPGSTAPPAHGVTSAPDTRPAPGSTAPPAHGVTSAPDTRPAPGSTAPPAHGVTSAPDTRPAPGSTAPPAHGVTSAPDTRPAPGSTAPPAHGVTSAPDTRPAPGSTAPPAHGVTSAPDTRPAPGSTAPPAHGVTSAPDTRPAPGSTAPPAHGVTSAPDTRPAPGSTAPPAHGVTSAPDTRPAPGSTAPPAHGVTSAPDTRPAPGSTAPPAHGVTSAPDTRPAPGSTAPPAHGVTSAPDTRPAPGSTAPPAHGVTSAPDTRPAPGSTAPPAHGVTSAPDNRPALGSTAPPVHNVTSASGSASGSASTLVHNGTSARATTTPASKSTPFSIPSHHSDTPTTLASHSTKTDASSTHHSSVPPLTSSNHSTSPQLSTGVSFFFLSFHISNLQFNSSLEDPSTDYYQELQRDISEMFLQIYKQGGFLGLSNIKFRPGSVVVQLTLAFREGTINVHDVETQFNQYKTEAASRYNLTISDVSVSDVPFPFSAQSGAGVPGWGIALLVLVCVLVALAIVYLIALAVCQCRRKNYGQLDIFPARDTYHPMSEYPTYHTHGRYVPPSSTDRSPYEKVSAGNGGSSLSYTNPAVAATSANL

Target: NF-κB p65 (human (endogenous in Caco-2 and HT-29)) (UniProt Q04206)
Assay: co-IP; nuclear proteins of TNF-stimulated Caco-2 and HT-29 cells; precipitated with anti-phospho-p65 antibody, immunoblotted with anti-MUC1 Ab5 or anti-EzH2 antibody

“MUC1 mucin (from UniProt P15941 24-1255)” was tested, and the binding was “binds”.
